Source: PubChem BioAssay AID1487 (National Center for Advancing Translational Sciences (NCATS), 2009)
This is one part of the list. These are further read-outs of the screen, such as a control signal, another cell line or another target. No call is given for them. Compounds called inactive in the main read-out are mostly missing here. Potencies come from curve fits of mixed quality, noted in brackets.

Experiment: qHTS Assay for Modulators of Lamin A Splicing
Details: HeLa LMNA splicing GFP/RFP minigene ratio, 48 h
Method in brief: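 Read-out is the ratio of GFP to DsRed2 object intensity, acquired by 488 nm laser-scanning cytometry on HeLa lamin A-EGFP minigene reporter cells. Compound incubation 48 hrs at 37 °C in Opti-MEM with 2% FBS; DMSO 0.5% final.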

[1] = measured here: RFP viability control channel
[2] = measured here: GFP splicing reporter channel

| SMILES | AC50 [1] | AC50 [2] |
| --- | --- | --- |
| COc1cc(C(=O)Nc2ccc(Cl)c(C(F)(F)F)c2)cc(OC)c1OC | 22.4 µM [rising, single point] |  |
| COC(=O)C1=C(O)/C(=C\c2sccc2C)N=C1C |  | 5.01 µM [falling, full curve, poor fit] |
| CCCCn1c(N)c(-c2nc3ccccc3o2)c2c([N+](=O)[O-])nn(CC)c(=O)c21 | 2.51 µM [rising, partial curve, poor fit] |  |
| Cc1cc(=O)n(Cc2ccccc2)c2c1c(C)nn2-c1ccccc1 | 12.6 µM [rising, single point] | 7.08 µM [rising, partial curve] |
| Fc1ccccc1NC(=S)Nc1ccc(Br)cc1 | 35.5 µM [rising, single point] |  |
| O=C(Nc1nc(-c2ccccc2)cs1)c1ccc(N2CCOCC2)c([N+](=O)[O-])c1 | 2.82 µM [rising, single point] |  |
| CC(=O)Oc1ccc(-c2cccc(C(=O)O)c2)cc1 | 11.2 µM [falling, partial curve] | 12.6 µM [falling, partial curve] |
| O=C(C1CCN(S(=O)(=O)c2ccc3ccccc3c2)CC1)N1CCN(c2ncccn2)CC1 | 2.51 µM [rising, partial curve] | 2.82 µM [rising, partial curve] |
| Cc1nnc(SC(C)C#N)n1-c1ccccc1 (stereo not given) |  | 1.26 µM [falling, partial curve] |
| CCOc1cc(S(=O)(=O)Nc2ccccc2CC)ccc1Cl | 11.2 µM [rising, single point] |  |
| CNC(=O)CCCN1C(=O)CCn2nc(-c3cn(C)c4ccccc34)cc21 | 31.6 µM [rising, partial curve, poor fit] | 35.5 µM [rising, partial curve, poor fit] |
| CC(=O)Nc1nnc(SCC(=O)c2ccc3c(c2)Cc2ccccc2-3)s1 | 11.2 µM [rising, partial curve] |  |
| CCOC(=O)Cc1ccc(-c2ccccc2)cc1 | 35.5 µM [falling, single point] | 7.94 µM [rising, partial curve, poor fit] |
| COc1cc(C(=O)Nc2ccc3oc(-c4cccnc4)nc3c2)cc(OC)c1OC |  | 0.0126 µM [falling, full curve] |
| CCOC(=O)c1[nH]c2ccc(OC)cc2c1N=CN(C)C | 20 µM [rising, single point] |  |
| CCOc1cc(CNCCO)cc(Br)c1OCc1ccc(Cl)cc1 | 25.1 µM [falling, partial curve] | 25.1 µM [falling, single point] |
| Cc1ccc(NC(=O)c2c3c(nc4ccccc24)C(=O)N(C2CCCCC2)C3)cc1F | 10 µM [falling, partial curve] | 11.2 µM [falling, partial curve] |
| COc1cc(O)oc1C=Nc1ccc(C(F)(F)F)cc1 |  | 5.01 µM [falling, partial curve] |

Looked up by compound from the entries so far (2):

| SMILES | AC50 [1] | AC50 [2] |
| --- | --- | --- |
| CCOc1cc(S(=O)(=O)Nc2ccccc2CC)ccc1Cl | 11.2 µM [rising, single point] |  |
| Cc1ccc(NC(=O)c2c3c(nc4ccccc24)C(=O)N(C2CCCCC2)C3)cc1F | 10 µM [falling, partial curve] | 11.2 µM [falling, partial curve] |

Continuation:

| SMILES | AC50 [1] | AC50 [2] |
| --- | --- | --- |
| Cc1ccc(Nc2nc(NCCCN3CCOCC3)nc(N)c2[N+](=O)[O-])cc1 | 15.8 µM [rising, partial curve, poor fit] | 15.8 µM [rising, single point] |
| CC(=O)c1nc2ccccc2n1CCc1ccccc1 |  | 3.98 µM [falling, full curve, poor fit] |
| CC[N+](CC)(CC)CC(=O)Nc1ccc(SC(F)F)cc1 | 1.26 µM [falling, full curve, poor fit] |  |
| CN(C)c1ccc(/C=C/C(=O)c2ccccc2)cc1[N+](=O)[O-] | 35.5 µM [falling, single point] | 35.5 µM [falling, single point] |
| Cc1ccc(C(=O)NCC(c2cccs2)S(=O)(=O)c2ccccc2)cc1C (stereo not given) | 35.5 µM [falling, partial curve, poor fit] |  |
| CCCCC(CC)CNC(=O)CCCCn1c(=O)[nH]c2ccsc2c1=O (stereo not given) |  | 2.24 µM [falling, full curve] |
| CN(C)S(=O)(=O)Oc1ccccc1C(=O)Nc1ccc(F)cc1F |  | 0.01 µM [falling, single point] |
| CCC(C)(C)C1CCC(=NNC(=S)Nc2cccnc2)CC1 (stereo not given) | 31.6 µM [rising, single point] | 35.5 µM [rising, single point] |
| Cc1ccccc1Nc1nc(NCc2ccco2)c2ccccc2n1 | 0.891 µM [falling, full curve] |  |
| CNC(=S)N/N=C/c1cn(Cc2ccc(F)cc2)c2ccccc12 | 15.8 µM [rising, partial curve, poor fit] |  |
| CCOc1ccccc1N(CC(=O)N/N=C/c1cc(Br)ccc1OC)S(C)(=O)=O |  | 14.1 µM [rising, single point] |
| O=C(Cc1nc(=O)c2ccccc2s1)Nc1ccccc1 | 10 µM [falling, partial curve] | 10 µM [falling, single point] |
| COc1cc(C2=NOC(C(=O)Nc3ccc(C)cc3)C2)cc(OC)c1OC (stereo not given) | 14.1 µM [rising, single point] | 12.6 µM [rising, single point] |
| Cc1ccc(S(=O)(=O)N(C)C)cc1NC(=O)c1ccccc1Br | 12.6 µM [rising, single point] |  |
| COc1ccc(NS(=O)(=O)c2cccc(NC(=O)C34CCC(CC3)C4)c2)cc1 | 10 µM [rising, partial curve] |  |
| Clc1ccccc1COc1ccc(/C=N/n2cnnc2)cc1 | 25.1 µM [rising, single point] | 12.6 µM [rising, single point] |
| Cc1ccc(S(=O)(=O)Nc2cc(-c3nn(C)c(=O)c4ccccc34)ccc2N2CCOCC2)cc1 | 12.6 µM [rising, partial curve, poor fit] |  |
| Nc1ccc(SC(F)(F)F)cc1C(=O)c1ccccc1 | 0.126 µM [falling, full curve, poor fit] | 0.112 µM [falling, full curve, poor fit] |
